Literature values in patent US6416793B1, “Formulations and use of controlled-release indole alkaloids” (BioResponse, L.L.C., priority 2000, dated 2002).
Some entries share one result that the patent states for a list of compounds.

Details: oral, without special formulation

Structure (SMILES): COC(=O)[C@@H]1[C@H]2C[C@H]3c4[nH]c5ccccc5c4CCN3C[C@@H]2CC[C@@H]1O [yohimbine]
- bioavailability: less than 30%
